This passage reports IC50 results from patent US11382848B2, “Compounds reducing malodour perception and the use thereof” (CHEMCOM S.A., priority 2017, dated 2022).

The chains behind the UniProt entries cited, without tags or fusion partners.
UniProt Q8NG98, whole entry: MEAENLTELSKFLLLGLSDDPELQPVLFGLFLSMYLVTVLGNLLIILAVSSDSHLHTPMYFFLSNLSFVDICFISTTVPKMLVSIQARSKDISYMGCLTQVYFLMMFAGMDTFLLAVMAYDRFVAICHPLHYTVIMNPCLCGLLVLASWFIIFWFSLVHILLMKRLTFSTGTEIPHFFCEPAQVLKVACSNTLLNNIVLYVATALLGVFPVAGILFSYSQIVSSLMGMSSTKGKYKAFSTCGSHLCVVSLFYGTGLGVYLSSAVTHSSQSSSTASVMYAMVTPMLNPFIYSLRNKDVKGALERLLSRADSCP

For the assay, the target named is human olfactory receptor OR7D4 (Homo sapiens, UniProt Q8NG98). In words: OR7D4 luciferase gene reporter assay (antagonism of agonist-induced activation). As to conditions: read-out: IC50 (micromolar), dose-response, half decrease of the luciferase production obtained without antagonist, androstenone at 31.6 micromolar. As for the experimental part:
Cells were maintained in minimal essential medium (EMEM, Lonza) containing 10% fetal bovine serum (M10). HEK293T stably expressing olfactory chaperone proteins from the RTP family as described in WO 2006/002161 (introduced here as a reference) were generated by transfecting HEK293T cells with expression vector containing the chaperone gene sequences and a resistance gene to puromycin, using Lipofectamine 2000. A recombinant cell population was selected by adding 10 μg/ml of puromycin into the culture medium. Monoclonal populations were further obtained by limit dilution procedure. […]
Briefly, cells were plated on poly-D-lysine-coated 96-well plates (BD Bioscience, Erembodegem-Dorp, Belgium) and transfected with a plasmid containing CRE-luciferase and a plasmid containing OR7D4. Sixteen hours after transfection, the culture medium was replaced by serum-free EMEM containing the tested ligands at a determined concentration. After four hours of incubation at 37° C. degree, cells were lysed and processed for luminescence measurement according to the manufacturer's protocols. Luminescence emission was recorded on a Spectra Max M5 reader (Molecular Devices, Sunnyvale, Calif.). Results were expressed as percentage of the response induced by 10 μM of the adenylate cyclase activator Forskolin. […]
For orientation: Reporter assays use an easily measured gene product as a stand-in for the process of interest.

The structures appear in SMILES notation. Structures were worked out from names or drawings and are uncertain.

For `CCCCCC(=C\c1ccccc1)/C=C(\C)C(=O)OCC`, the IC50 is 1 µM.

As for `CCCCCC(=C\c1ccccc1)/C=C(\C)C(N)=O`, the IC50 came out at 11 µM.

By IC50 is commonly meant the concentration needed to halve the response being measured.
